Consider 42 sequences from publication PMC7819943, “Rice protein-binding microarrays: a tool to detect cis-acting elements near promoter regions in rice”.

The list shows a part of the results.

The assay has as its target T1, OsSMF1 (Oryza sativa, UniProt Q6ZLB0 1-436).
T1 sequence: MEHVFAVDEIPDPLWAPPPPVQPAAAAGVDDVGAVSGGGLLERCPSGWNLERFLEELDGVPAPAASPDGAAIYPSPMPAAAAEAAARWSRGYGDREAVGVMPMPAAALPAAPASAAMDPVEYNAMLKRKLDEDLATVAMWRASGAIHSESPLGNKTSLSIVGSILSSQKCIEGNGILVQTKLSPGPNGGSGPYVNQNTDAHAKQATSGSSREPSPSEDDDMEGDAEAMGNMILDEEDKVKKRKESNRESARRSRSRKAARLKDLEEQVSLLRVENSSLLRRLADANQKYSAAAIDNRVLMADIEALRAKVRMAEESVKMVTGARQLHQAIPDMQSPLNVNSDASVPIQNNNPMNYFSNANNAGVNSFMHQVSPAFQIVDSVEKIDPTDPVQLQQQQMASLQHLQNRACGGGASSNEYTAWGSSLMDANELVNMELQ
Description: protein-binding microarray (RPBM); PBS, 2% BSA, 51.3 ng/ul salmon testes DNA, 50 uM zinc acetate, 200 nM TF, 25 C, 1 h; high values mean tight binding. Particulars: protein: recombinant; tags: N-terminal polyhistidine and DsRed monomer fusion (pET32a); chain copies: 2; label: CyDye5-dUTP incorporated in the synthesized complementary strand; 3' TTTTT single-stranded linker to array surface; dsDNA, one strand shown. In a few lines: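 The binding signal for each feature is its fluorescence intensity in arbitrary units. An Axon 4000B scanner was used to read a custom Agilent array that had been made double-stranded with Cy5-dUTP primer extension, blocked with 2% BSA, incubated at 25 °C for 1 h with 200 nM protein in PBS, 2% BSA, salmon testes DNA and 50 µM zinc acetate, and washed. The protein was an N-terminal polyhistidine–DsRed transcription factor fusion from E. coli BL21-CodonPlus, purified on Ni–NTA.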
Consider “GTCTTCTTGGGCGTAGAGCCAGCTATCTATCAGCCACCGCCGGAGTCACCTAGTGCAG”, for which the binding signal is 3350 fluorescence intensity (a.u.).

Regarding “CACCTGTCATACACACACAATGTCTTGGAGTCCGTGCTGCCGGAGTCACCTAGTGCAG”, the binding signal is 3320 fluorescence intensity (a.u.).

On to “CCGATATGATGCAGCAGCTCCGACTCCACCTTAACACTAACGGAGTCACCTAGTGCAG”, for which the binding signal is 3570 fluorescence intensity (a.u.).

With “GATCACGAACTGGGCGCCCACGATCCAAGCCGGGTCGCGACGGAGTCACCTAGTGCAG”, the binding signal was 3210 fluorescence intensity (a.u.).

As to “GAATGTATTAAAATCAGACGTTGTTTGATTAGTTATAGAACGGAGTCACCTAGTGCAG”, the binding signal is 30100 fluorescence intensity (a.u.).

Consider “CGACGACTCGTCTCCTTCCTCGTCATCTCCAAGTTCACCACGGAGTCACCTAGTGCAG”, for which the binding signal is 3730 fluorescence intensity (a.u.).

In the case of “CAGTCTCAAATTATGGGGTGCCCTCTTTTCGAGGAAAATTCGGAGTCACCTAGTGCAG”, the binding signal is 3960 fluorescence intensity (a.u.).

Regarding “TTCTTTGGGTTTGGGACACACTCATATACGCGTGTTCATGCGGAGTCACCTAGTGCAG”, the binding signal is 20400 fluorescence intensity (a.u.).

“AAGCCTGGTATGAATCTGGCCGGGACTGACGTGCCAACTCCGGAGTCACCTAGTGCAG”: the binding signal was 4480 fluorescence intensity (a.u.).

With “AAGGGAGTCCGCGGCCCGCCGTCGACGCCGCGTGGTCGGCCGGAGTCACCTAGTGCAG”, the binding signal was 3620 fluorescence intensity (a.u.).

“TAACAATATAAGATTCGACTATACATGTCAGCTTACTATGCGGAGTCACCTAGTGCAG”: the binding signal is 5130 fluorescence intensity (a.u.).

Regarding “ATTGGAGATGATGTGACTGAAAAGTTGTGTGTGTATGACACGGAGTCACCTAGTGCAG”, the binding signal was 3620 fluorescence intensity (a.u.).

Regarding “TTAATACTCACCACAAATGACACAAAATACGAGTTTTCGGCGGAGTCACCTAGTGCAG”, the binding signal is 15800 fluorescence intensity (a.u.).

Turning to “ACCCGTACCTGTCCAGCCACGTTTGGCGTAACACCTGAACCGGAGTCACCTAGTGCAG”, the binding signal is 3850 fluorescence intensity (a.u.).

For “AGCACGCATACCACGCGCGGTTCCATGTCCCCACGTGTTGCGGAGTCACCTAGTGCAG”, the binding signal is 5590 fluorescence intensity (a.u.).

With “TGGCGGTGAAGCACTGAAGCGTGAGATACCTAAATTGTGCCGGAGTCACCTAGTGCAG”, the binding signal was 3360 fluorescence intensity (a.u.).

In the case of “AAATGGGTCCCACACGGACATCCTACCCCACCTGTCACCACGGAGTCACCTAGTGCAG”, the binding signal was 3250 fluorescence intensity (a.u.).

For the sequence “AATGAAATCCTTTAAAATTTCTATGTATTTCCTTTGAATCCGGAGTCACCTAGTGCAG”, the binding signal was 33600 fluorescence intensity (a.u.).

Regarding “TAATGCTGAATTGTAGCTGCATCAAGCCATCAACTCATACCGGAGTCACCTAGTGCAG”, the binding signal was 21600 fluorescence intensity (a.u.).

For the sequence “TGGCTATATCTTGGGGTACCCGTTGCAATTAGCACGCTCTCGGAGTCACCTAGTGCAG”, the binding signal is 30900 fluorescence intensity (a.u.).

Regarding “GAGGTCAACGCAACGATTAAAACCCGCGCGAGCGAGCGCACGGAGTCACCTAGTGCAG”, the binding signal was 28700 fluorescence intensity (a.u.).

Consider “GTTCCAGCCCCAATTCCCTCTTGACGTCGTACCTTCTCCCCGGAGTCACCTAGTGCAG”, for which the binding signal is 3260 fluorescence intensity (a.u.).

In the case of “GCGCAAGCCCAGCCGCCTCGTCGTGTTCGCGTTCGTCGCGCGGAGTCACCTAGTGCAG”, the binding signal is 3690 fluorescence intensity (a.u.).

Turning to “ACTCCGACGGTGGCGCCACCATGATTTGGGTTCTTGCTGACGGAGTCACCTAGTGCAG”, the binding signal was 5070 fluorescence intensity (a.u.).

Consider “CTTTTGGCAAAATCCGTGATGCAGCATCGATCCCTGTCAACGGAGTCACCTAGTGCAG”, for which the binding signal was 39800 fluorescence intensity (a.u.).

On to “CAGCGACATGGTCTCTAAAATACAACTTTGACTTCTTATTCGGAGTCACCTAGTGCAG”, for which the binding signal is 26700 fluorescence intensity (a.u.).

On to “CGCCAAGTCTTCGAGGGCCCCACCTGTCAGCCGTGGACCCCGGAGTCACCTAGTGCAG”, for which the binding signal was 17900 fluorescence intensity (a.u.).

In the case of “CGGTGCGGTGGAGGTTGGACAATGTGACGAAACCAGCGCTCGGAGTCACCTAGTGCAG”, the binding signal was 3270 fluorescence intensity (a.u.).

On to “TTTCGATTTCGATCTCCATCGATCATTTCGGTTCAGGTTTCGGAGTCACCTAGTGCAG”, for which the binding signal was 4310 fluorescence intensity (a.u.).

Take “GCGACCGCGATTTCATCCTATCCATCTACCGCAATGTTCGCGGAGTCACCTAGTGCAG”: the binding signal is 3150 fluorescence intensity (a.u.).

With “GCTCACGCCCTTTGCCTTGGCCACACGCCAGCGAATGACCCGGAGTCACCTAGTGCAG”, the binding signal is 3260 fluorescence intensity (a.u.).

Turning to “CCATTCCGCCTCTCTCGGCCGGTCTCTCCTCGCGGGATAGCGGAGTCACCTAGTGCAG”, the binding signal is 3540 fluorescence intensity (a.u.).

As for “AGTTGTTCTTCTCAGCAGGTTGCTGTCATCTTAGACTTTTCGGAGTCACCTAGTGCAG”, the binding signal was 4480 fluorescence intensity (a.u.).

In the case of “CGCCGCCTCGTCACCGACCCCGCCTTCCACCGCCGCTTCCCGGAGTCACCTAGTGCAG”, the binding signal was 10400 fluorescence intensity (a.u.).

As to “ATTAATGGCCTTGATTCTACCTATAGCTCAACAAATGGTTCGGAGTCACCTAGTGCAG”, the binding signal was 24300 fluorescence intensity (a.u.).

For “TTTAGATACCATCTTATTGCACATATTTGCAATATCCAAACGGAGTCACCTAGTGCAG”, the binding signal was 3260 fluorescence intensity (a.u.).

As for “AAGGTTCTAGATGCAGTGAAATCAAGTGTGAAAAGTGGGGCGGAGTCACCTAGTGCAG”, the binding signal is 3160 fluorescence intensity (a.u.).

For the sequence “TTAGCCGGATACACTCATCCAGCATCTTCGTGGAATATTCCGGAGTCACCTAGTGCAG”, the binding signal is 3260 fluorescence intensity (a.u.).

For “GGTTTTATATAGTTTAGGGGTGAAGATTTCTGATTTTGTGCGGAGTCACCTAGTGCAG”, the binding signal was 3370 fluorescence intensity (a.u.).

Regarding “GCAAAAGGAAATATATGCACCTTGTCGGGTCATCGTGGCTCGGAGTCACCTAGTGCAG”, the binding signal is 4260 fluorescence intensity (a.u.).

Consider “TGCTTCTTGCACCTCTCCTCCTCCACGCATTGCTTCTTGACGGAGTCACCTAGTGCAG”, for which the binding signal is 3880 fluorescence intensity (a.u.).

Turning to “CTCTGCTCGCTCGCTCGCTCGTCTCCACACCTTCTCCTCCCGGAGTCACCTAGTGCAG”, the binding signal is 26700 fluorescence intensity (a.u.).
